These results are taken from publication PMC7819943, “Rice protein-binding microarrays: a tool to detect cis-acting elements near promoter regions in rice”.

By UniProt entry, the sequences of proteins in these tests, tags left out.
UniProt Q0JBA9, entry or part of it: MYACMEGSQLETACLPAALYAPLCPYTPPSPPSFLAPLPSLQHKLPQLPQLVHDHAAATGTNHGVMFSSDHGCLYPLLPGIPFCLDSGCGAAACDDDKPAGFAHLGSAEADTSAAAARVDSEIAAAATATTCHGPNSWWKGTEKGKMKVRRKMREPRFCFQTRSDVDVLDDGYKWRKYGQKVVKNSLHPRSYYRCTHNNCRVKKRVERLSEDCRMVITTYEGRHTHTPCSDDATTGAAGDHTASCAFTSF

The other results are listed elsewhere or left out.

This test concerns the target OsWRKY34 (Oryza sativa, UniProt Q0JBA9 1-250). The test can be described thus: protein-binding microarray (RPBM); PBS, 2% BSA, 51.3 ng/ul salmon testes DNA, 50 uM zinc acetate, 200 nM TF, 25 C, 1 h; high values mean tight binding. The note with it: protein: recombinant; tags: N-terminal polyhistidine and DsRed monomer fusion (pET32a); label: CyDye5-dUTP incorporated in the synthesized complementary strand; 3' TTTTT single-stranded linker to array surface; dsDNA, one strand shown. A digest of the protocol:
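Ni–NTA purification followed expression in E. coli BL21-CodonPlus of transcription factors fused N-terminally to a polyhistidine tag and DsRed. At 200 nM in PBS with 2% BSA, salmon testes DNA and 50 µM zinc acetate, the protein was incubated for 1 h at 25 °C with a custom Agilent array that had been primer-extended with Cy5-dUTP and blocked with 2% BSA. After washing, the array was read on an Axon 4000B scanner. The binding signal is per-feature fluorescence intensity in arbitrary units.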
For “ATCCTGTTCTATATTCGTTTCGTTTTTTATAGGAACTACTCGGAGTCACCTAGTGCAG”, the binding signal is 9010 fluorescence intensity (a.u.). For the sequence “CCCCACAACCCCGCATCGTCATCACCACCACCACTCCTCGCGGAGTCACCTAGTGCAG”, the binding signal is 8480 fluorescence intensity (a.u.). With “TATGATCCATATGCTACTGAACTCGTTATCTTGTGTCTAGCGGAGTCACCTAGTGCAG”, the binding signal is 8370 fluorescence intensity (a.u.).

Take “CCCTTCCTACCCCACCTCGCCGTCGCCGCGCGCTCCACCCCGGAGTCACCTAGTGCAG”: the binding signal was 8110 fluorescence intensity (a.u.). Turning to “TTGTCGTACTCCAGTACTCCACTATCGCTGCCACGACCATCGGAGTCACCTAGTGCAG”, the binding signal was 8290 fluorescence intensity (a.u.). As to “ATATATAGTGGGTGGTCTAATTAATTAAGCTAATTCTAAGCGGAGTCACCTAGTGCAG”, the binding signal was 8630 fluorescence intensity (a.u.).

On to “TGCTGCCCGAGGCCCACACTGAATTCCTCCCTCACTTTCCCGGAGTCACCTAGTGCAG”, for which the binding signal was 10700 fluorescence intensity (a.u.). As to “TCTCAATTCTTGCTTACTTGCGCTGTTGATTCATATGGCTCGGAGTCACCTAGTGCAG”, the binding signal is 8690 fluorescence intensity (a.u.). In the case of “ACCTCGCCCGCCGTCTCGCTCGCTGTCTCGTCGCCCTCACCGGAGTCACCTAGTGCAG” it was 12600 fluorescence intensity (a.u.).

“ATCCAACTGGCTTTTGCCGGTTCTTTTGGCCCTTGCACACCGGAGTCACCTAGTGCAG”: the binding signal was 11300 fluorescence intensity (a.u.).

Take “CTGTCTCACTCACAAATCACACATCTTCCTACCTCTCTCCCGGAGTCACCTAGTGCAG”: the binding signal was 9770 fluorescence intensity (a.u.).

On to “AATCTTCCCCTAACTTTGCTAATTATTCACTGGCCTTTTCCGGAGTCACCTAGTGCAG”, for which the binding signal is 10000 fluorescence intensity (a.u.). As to “CCGCCCACCTACCCGACTACCCGAGGCAGCCTCTCTCTCCCGGAGTCACCTAGTGCAG”, the binding signal was 8730 fluorescence intensity (a.u.). For the sequence “AATTTGAAACAGTTTGATTTTGACTGAAGTCAAAACGACTCGGAGTCACCTAGTGCAG”, the binding signal was 9500 fluorescence intensity (a.u.). On to “TTAGATGATTTGTTTGCTTACTTCCATTCTAGCAGATAGACGGAGTCACCTAGTGCAG”, for which the binding signal was 10600 fluorescence intensity (a.u.). To “GCAAAAAATACAGTTGTTTCTCCCGTTCTTGTTCACGGTCCGGAGTCACCTAGTGCAG” belongs 8420 fluorescence intensity (a.u.); to “TCCTTTCACTTGCTTGCTCTTTGTGTACATCTTTCGCCGGCGGAGTCACCTAGTGCAG”, 12300 fluorescence intensity (a.u.).

As for “CATCCCCACCCTCGCCGCTGCTGCCGCCGCCGTCGCCGCCCGGAGTCACCTAGTGCAG”, the binding signal is 8910 fluorescence intensity (a.u.). In the case of “TAGCATGAATTGCTTGTTGTACCATCCATTTTCCGTTGACCGGAGTCACCTAGTGCAG”, the binding signal is 11500 fluorescence intensity (a.u.). “GCCGCCGCCGTCGCTGTCTCCCGCGCCCGGCCGGACGGCCCGGAGTCACCTAGTGCAG”: the binding signal is 10300 fluorescence intensity (a.u.). With “CGAATCCCCGCCGTCTCCTCGCTCCGTGCGCATCCTCCCTCGGAGTCACCTAGTGCAG”, the binding signal is 8200 fluorescence intensity (a.u.). Take “TGCTGCTAGGGTTTGTAGGGTGGTTCGCTCGGTGGGTGGTCGGAGTCACCTAGTGCAG”: the binding signal is 8750 fluorescence intensity (a.u.). On to “AACCGCCATCCAAAACCGTCCAGGGAGTCAAATTACACTGCGGAGTCACCTAGTGCAG”, for which the binding signal was 8110 fluorescence intensity (a.u.). Take “GTGTTTACTTCACTTTGCTCGTTTACTTCGATCGGTCTCGCGGAGTCACCTAGTGCAG”: the binding signal is 12900 fluorescence intensity (a.u.). To “TCGATGTATATGGGCCTCGCGTTTGTTTCGGCCTGTTTACCGGAGTCACCTAGTGCAG” belongs 9040 fluorescence intensity (a.u.); to “TAATGGATCTTCGCTTTCTGTTTTGTGCTGTTGTTGTCTTCGGAGTCACCTAGTGCAG”, 10700 fluorescence intensity (a.u.).

As for “TGCTTACTACTGATAATATCCGCTTTGCTAATTGCTAGCACGGAGTCACCTAGTGCAG”, the binding signal is 8350 fluorescence intensity (a.u.). Consider “TACACGCTCGGCTCCCGACCCGGCACCGGCGACGACTTCCCGGAGTCACCTAGTGCAG”, for which the binding signal was 8280 fluorescence intensity (a.u.).

Take “TCCGCTCCGTTTTCATCTCCGTATTGGCTCCGTTCTCATCCGGAGTCACCTAGTGCAG”: the binding signal is 13700 fluorescence intensity (a.u.). Turning to “CCTACTGTGTCCTTACTACTCATGATGACACGCGTTTTCTCGGAGTCACCTAGTGCAG”, the binding signal was 13700 fluorescence intensity (a.u.). For “AGCTGTCAGCCCGCCGCGCCCACCTACCCGCGTCCACGCGCGGAGTCACCTAGTGCAG”, the binding signal is 11000 fluorescence intensity (a.u.). With “ACACATTGCCATGATCGAGCTCATGATCACCTTCCATCCGCGGAGTCACCTAGTGCAG”, the binding signal is 8660 fluorescence intensity (a.u.). To “GGTCCCACTCGTCATAATCTCTGTTTGGCCATAATTGGAACGGAGTCACCTAGTGCAG” belongs 10500 fluorescence intensity (a.u.); to “TCCTTCTCAACCTCCTCCTATTCTCTCTCTCTCTCTCTCTCGGAGTCACCTAGTGCAG”, 8590 fluorescence intensity (a.u.). To “GCCTGGCTAGCACCGTCATTACGTCAACCGCTGACGTCAGCGGAGTCACCTAGTGCAG” belongs 9560 fluorescence intensity (a.u.); to “CGGTCGCATCACTCCTTTCCCACGCCCCACGCCCTCGAAGCGGAGTCACCTAGTGCAG”, 8210 fluorescence intensity (a.u.); to “CAGAGGCGGTCAAGTGTGGTGCGGTGCGATGGCAGCGGGGCGGAGTCACCTAGTGCAG”, 8510 fluorescence intensity (a.u.). Consider “TATCTACCGTCTCGCCTATTCAGATTCGTAACGAGTCTTCCGGAGTCACCTAGTGCAG”, for which the binding signal is 8590 fluorescence intensity (a.u.). For the sequence “CACCGAAATGCTCACATCTCACCCGAAAATTTTGTTTTTTCGGAGTCACCTAGTGCAG”, the binding signal is 10300 fluorescence intensity (a.u.). For the sequence “ATGTGTCTCTTTTACTGCCATATGTATCAACCAATCGATTCGGAGTCACCTAGTGCAG”, the binding signal is 9920 fluorescence intensity (a.u.). To “CTCGAGGTAGGGTTTCGAGCTCAGATTTGGGTGTTTCTCTCGGAGTCACCTAGTGCAG” belongs 8290 fluorescence intensity (a.u.); to “CCAAGGGTGGGGCCTCTCGTCGTCTCGTCTCCTCTCGTCTCGGAGTCACCTAGTGCAG”, 20400 fluorescence intensity (a.u.).
